# Laboratory results as given in patent publication US20020058275.
# Chains of the proteins cited; added tags and fusions are not shown. A line that says so, or that is headed by a name, gives the form on record, which may keep a tag or linker.
# hMSH2:hMSH6 heterodimer (Homo sapiens), one chain, as listed by the source, chain 2 of 2: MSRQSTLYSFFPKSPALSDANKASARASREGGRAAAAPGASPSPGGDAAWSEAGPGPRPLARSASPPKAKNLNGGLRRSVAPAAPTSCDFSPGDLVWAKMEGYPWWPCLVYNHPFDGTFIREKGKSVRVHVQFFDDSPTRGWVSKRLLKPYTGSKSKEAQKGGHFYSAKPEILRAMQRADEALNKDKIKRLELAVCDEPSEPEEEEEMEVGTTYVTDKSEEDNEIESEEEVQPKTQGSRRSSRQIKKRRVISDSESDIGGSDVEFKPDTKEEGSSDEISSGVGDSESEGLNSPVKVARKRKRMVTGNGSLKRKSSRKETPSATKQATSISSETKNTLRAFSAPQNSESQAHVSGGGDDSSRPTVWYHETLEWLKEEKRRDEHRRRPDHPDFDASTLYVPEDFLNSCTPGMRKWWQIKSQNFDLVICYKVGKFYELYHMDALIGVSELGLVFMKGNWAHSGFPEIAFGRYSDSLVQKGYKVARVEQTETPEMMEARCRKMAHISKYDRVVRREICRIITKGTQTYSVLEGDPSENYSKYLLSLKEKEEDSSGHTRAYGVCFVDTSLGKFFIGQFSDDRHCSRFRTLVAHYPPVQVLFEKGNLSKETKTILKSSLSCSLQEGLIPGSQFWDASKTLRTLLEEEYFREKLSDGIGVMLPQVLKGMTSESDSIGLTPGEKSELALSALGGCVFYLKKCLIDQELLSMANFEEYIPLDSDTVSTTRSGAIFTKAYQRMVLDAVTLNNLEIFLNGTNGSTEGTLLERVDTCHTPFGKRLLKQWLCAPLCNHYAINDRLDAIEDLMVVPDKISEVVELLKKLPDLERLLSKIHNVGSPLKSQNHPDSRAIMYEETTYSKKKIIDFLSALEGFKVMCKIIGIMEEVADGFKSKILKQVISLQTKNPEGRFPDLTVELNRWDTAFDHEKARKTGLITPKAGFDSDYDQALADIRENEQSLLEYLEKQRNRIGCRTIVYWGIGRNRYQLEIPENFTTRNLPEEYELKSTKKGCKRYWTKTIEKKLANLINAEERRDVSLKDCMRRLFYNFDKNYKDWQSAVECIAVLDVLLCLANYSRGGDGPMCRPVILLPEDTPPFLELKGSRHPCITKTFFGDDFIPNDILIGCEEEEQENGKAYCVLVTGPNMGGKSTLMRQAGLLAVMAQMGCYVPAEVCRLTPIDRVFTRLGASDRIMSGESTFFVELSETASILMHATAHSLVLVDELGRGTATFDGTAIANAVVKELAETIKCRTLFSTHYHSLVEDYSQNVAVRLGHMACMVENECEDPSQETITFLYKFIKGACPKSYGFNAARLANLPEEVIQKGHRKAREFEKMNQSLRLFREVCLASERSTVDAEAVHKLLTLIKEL
# hMSH2:hMSH6 heterodimer (Homo sapiens), one chain, as listed by the source, chain 1 of 2: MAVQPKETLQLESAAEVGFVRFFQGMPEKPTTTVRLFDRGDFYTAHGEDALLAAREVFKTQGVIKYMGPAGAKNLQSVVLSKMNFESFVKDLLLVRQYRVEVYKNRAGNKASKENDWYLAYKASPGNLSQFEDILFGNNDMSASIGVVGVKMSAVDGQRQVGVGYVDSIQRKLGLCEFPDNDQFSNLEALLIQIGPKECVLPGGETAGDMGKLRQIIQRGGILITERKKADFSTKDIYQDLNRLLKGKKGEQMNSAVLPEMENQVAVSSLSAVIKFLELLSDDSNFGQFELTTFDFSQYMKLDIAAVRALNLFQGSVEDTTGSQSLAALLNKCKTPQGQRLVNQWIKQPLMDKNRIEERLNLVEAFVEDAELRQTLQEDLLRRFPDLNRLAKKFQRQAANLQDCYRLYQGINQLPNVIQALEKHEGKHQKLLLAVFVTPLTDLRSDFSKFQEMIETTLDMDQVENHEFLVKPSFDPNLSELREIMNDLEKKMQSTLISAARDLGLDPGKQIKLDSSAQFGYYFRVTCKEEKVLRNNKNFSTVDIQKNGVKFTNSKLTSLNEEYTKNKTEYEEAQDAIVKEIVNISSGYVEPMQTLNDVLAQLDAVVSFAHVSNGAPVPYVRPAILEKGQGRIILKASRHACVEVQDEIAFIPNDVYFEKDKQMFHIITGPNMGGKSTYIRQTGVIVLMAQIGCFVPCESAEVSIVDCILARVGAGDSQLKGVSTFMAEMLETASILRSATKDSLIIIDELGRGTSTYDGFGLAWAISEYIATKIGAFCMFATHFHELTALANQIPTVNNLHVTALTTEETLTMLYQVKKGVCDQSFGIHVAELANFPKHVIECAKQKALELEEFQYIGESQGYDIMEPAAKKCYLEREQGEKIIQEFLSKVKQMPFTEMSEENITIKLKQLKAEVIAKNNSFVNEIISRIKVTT
# System: hMSH2:hMSH6 heterodimer (Homo sapiens)
# Test: EMSA
# Settings: non-specific NS-shifted complex; not saturable even above 400 nM; insensitive to ATP; unstable to competitor homoduplex; purified recombinant protein; label: 32P 5' end
sequence,measurement,value
AAAGCTGGAGCTGAAGCTTAGCTTAGGATCATCGAGGATCGAGCTCGGTGCAATTCAGCGGTACCCAATTCGCCCTATAGT (double strand) [homologous 81-bp duplex],binding result,binds more weakly

# A weaker result is weaker than the reference pair of the same experiment.
